In publication PMC3062566 one finds binding data, which are given here for 3 molecules.

By UniProt entry, the sequences of proteins in these tests, tags left out. Where a name states a change or a piece, a line headed by the entry shows the natural chain unless it says otherwise.
UniProt P9WHP5, whole entry, stated change not applied: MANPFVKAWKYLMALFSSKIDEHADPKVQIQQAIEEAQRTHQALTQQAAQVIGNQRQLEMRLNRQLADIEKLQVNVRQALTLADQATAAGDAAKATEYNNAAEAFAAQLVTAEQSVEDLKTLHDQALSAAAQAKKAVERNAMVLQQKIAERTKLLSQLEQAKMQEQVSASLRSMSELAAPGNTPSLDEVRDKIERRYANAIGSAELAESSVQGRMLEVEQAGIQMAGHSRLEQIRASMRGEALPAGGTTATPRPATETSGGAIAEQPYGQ

To fix the notation:
B1: M. tuberculosis PepD, wild type (expressed in M. smegmatis ΔpepD) (enzyme, UniProt O53896 1-464)
chain: MAKLARVVGLVQEEQPSDMTNHPRYSPPPQQPGTPGYAQGQQQTYSQQFDWRYPPSPPPQPTQYRQPYEALGGTRPGLIPGVIPTMTPPPGMVRQRPRAGMLAIGAVTIAVVSAGIGGAAASLVGFNRAPAGPSGGPVAASAAPSIPAANMPPGSVEQVAAKVVPSVVMLETDLGRQSEEGSGIILSAEGLILTNNHVIAAAAKPPLGSPPPKTTVTFSDGRTAPFTVVGADPTSDIAVVRVQGVSGLTPISLGSSSDLRVGQPVLAIGSPLGLEGTVTTGIVSALNRPVSTTGEAGNQNTVLDAIQTDAAINPGNSGGALVNMNAQLVGVNSAIATLGADSADAQSGSIGLGFAIPVDQAKRIADELISTGKASHASLGVQVTNDKDTLGAKIVEVVAGGAAANAGVPKGVVVTKVDDRPINSADALVAAVRSKAPGATVALTFQDPSGGSRTVQVTLGKAEQ

Results are given in words; binding and its absence hold for the method and conditions named. In cells and extracts the contact can be indirect. Some results given as binding are weak or reduced against the parent protein; the word gives no strength.

This assay addresses 3xFLAG-Rv2744c-6xHis (expressed in M. smegmatis ΔpepD from pTZ1175) (Mycobacterium tuberculosis) (UniProt P9WHP5). Briefly: co-IP.
With “M. tuberculosis PepDS317A (untagged, expressed in M. smegmatis ΔpepD) (from UniProt O53896 1-464) (enzyme)”, the binding entry is on record as “binds”.
As for “MSMEG_2695 (35-kDa antigen of M. smegmatis) (from UniProt A0QVU2 1-279)”, the binding result is “binds”.
As for B1, the entry is “binds”.
